Results from US20120115742A1, “METHODS FOR IDENTIFICATION” (Cambridge Enterprise Limited, priority 2009, published 2012).
At least one compound was matched to its structure with a doubt left.

Test system: C-reactive Protein (CRP)
Test: Clinical study, serum C-reactive protein
Format: in vivo, human
Details: pre-dose versus last day of dosing

Compound: C[C@H]1C[C@@H]2[C@H]([C@@H](O)C[C@@]3(C)[C@H]2CC[C@]3(O)C(=O)CO)[C@@]2(C)C=CC(=O)C=C12 [Medrol®, methylprednisolone]
- effect on serum CRP level: lowered CRP to a similar extent
